# Results as given in PubChem BioAssay AID2685 (National Center for Advancing Translational Sciences (NCATS), 2010).
# The other results are listed elsewhere or left out. Further columns of the screen follow, without active or inactive calls. Compounds called inactive in the main read-out are mostly missing here. The note in brackets gives the kind of curve behind each potency; many fits are weak.
# Assay: qHTS Assay for Lipid Storage Modulators in Drosophila S3 Cells;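 for cell number change: cells counted by Cell Tracker Red CMTPX staining in the red channel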
# Settings: BODIPY lipid droplet fluorescence, 18-24 h; for cell number change: measured here: cell count max response, cells fed with added oleic acid
# Method in brief: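 Drosophila S3 cells loaded with oleic acid (400 uM, as added) and compounds at several concentrations; lipid droplets imaged by 488-nm laser-scanning cytometry, 500–530 nm intensity and object ratio to cell channel. Percent activity normalized to 20 uM Triacsin C.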
# [1] = measured here: cell number channel AC50, cells fed with added oleic acid
# [2] = measured here: lipid fluorescence (Fed channel) AC50, cells fed with added oleic acid
Compound,cell number change,AC50 [1],AC50 [2]
COc1cc(C(=O)Nc2cccc(-c3nc4cc(C)ccc4o3)c2C)cc(OC)c1OC,-52.2%,"16.4 µM [falling, partial curve]","29.1 µM [falling, single point]"
CC(C)(C)c1ccc(C(=O)NC(=O)COC(=O)c2ccco2)cc1,-39%,"4.11 µM [falling, full curve]",
COc1ccc(CCN2CC(C(=O)O)CC2=O)cc1 (stereo not given),-5.19%,,
CCCCCCCC(=O)NC(Nc1ccccc1OC)C(Cl)(Cl)Cl (stereo not given),5.61%,,"25.9 µM [rising, partial curve, poor fit]"
O=C(O)c1ccc2c(c1)c1c3n2CCNC3CCC1 (stereo not given),27.6%,,"18.4 µM [rising, single point]"
CCOC(=O)C1=CC[C@H]2c3c(c4ccccc4n3C)C(=O)C1N2C(=O)OC(C)(C)C,-39.4%,"2.59 µM [falling, partial curve]","2.31 µM [falling, partial curve]"
O=C(CCN1CCOCC1)NNC(=O)Nc1cccc(Cl)c1,-7.51%,,"18.4 µM [rising, partial curve]"
c1coc(-c2nc3nc4ccccc4nc3n2-c2ccc3c(c2)OCCO3)c1,-20.3%,,"0.517 µM [rising, partial curve, poor fit]"
Cc1cc(OCCCn2ccnc2)ccc1C(C)C,5.67%,,"2.59 µM [rising, full curve]"
CCC12CN3CC(CC)(CN(C1)C31C(=O)N(C)c3ccc(C)cc31)C2=O (stereo not given),-1.14%,,"3.66 µM [falling, single point]"
COCC(=O)Oc1c(S(=O)(=O)c2ccccc2)c(C)nn1C(C)(C)C,-18%,"0.116 µM [falling, full curve, poor fit]",
Nc1nonc1N/N=C\c1ccccc1,15.3%,,"9.2 µM [rising, partial curve]"
O=C(C1CC(c2ccccc2O)=NO1)N1CCCCC1 (stereo not given),-3.32%,,"6.51 µM [falling, single point]"
Cc1ccc(-n2nc3c(SCCN4CCOCC4)nnc(C)c3c2C)cc1,29.6%,,"16.4 µM [rising, partial curve]"
CCC(Oc1ccccc1)C(=O)Nc1nc2ccccc2[nH]1 (stereo not given),-21.4%,,"0.651 µM [rising, full curve]"
Nc1nn2c(C(F)(F)F)cc(=O)[nH]c2c1N=Nc1cccc(F)c1,32.7%,"1.3 µM [rising, partial curve]",

Compound,cell number change,AC50 [1],AC50 [2]
COc1ccc(NC(=O)CC(C(=O)O)N2CCCCC2)cc1 (stereo not given),12.5%,,"0.116 µM [falling, full curve, poor fit]"
CCC(C)NC(=O)CSc1nc2ccc(N3CCOCC3)cc2c(=O)n1CCc1ccccc1 (stereo not given),-13.8%,,
CCN1C(=O)CC(Sc2ccccc2C(=O)O)C1=O (stereo not given),-11.9%,,
CC1CC2c3cccc(C(=O)O)c3C(=O)N2c2ccc(Cl)cc21 (stereo not given),-27.9%,,
COc1ccccc1N(Cc1cc2cccc(C)c2[nH]c1=O)C(=O)C(C)C,-12.6%,,"0.291 µM [rising, full curve, poor fit]"
COc1ccc(C(=O)NC(=S)NC2CCSC2=O)cc1 (stereo not given),2.27%,,"29.1 µM [rising, single point]"
Cc1cccc(/C(N)=N/OC(=O)COc2ccc(Cl)c(C)c2)c1,-4.44%,,"16.4 µM [rising, partial curve]"
CCOC(=O)n1c(=O)[nH]c2ccc(Br)cc21,-13.6%,,"6.51 µM [falling, partial curve, poor fit]"
O=C(O)C1Cc2[nH]cnc2C(c2ccc(F)cc2)N1 (stereo not given),-51.4%,"23.1 µM [falling, single point]","18.4 µM [falling, single point]"
CC(C)=CC(=O)OCC(=O)Nc1ccc(F)cc1Cl,-7.58%,,
O=C(C1CCN(S(=O)(=O)c2ccc(Cl)cc2)CC1)N1CCCCCCC1,4.33%,,"0.82 µM [falling, full curve, poor fit]"
O=c1cc(CO)oc(C(Nc2cccc(C(F)(F)F)c2)c2ccccn2)c1O (stereo not given),9.77%,,"32.6 µM [falling, single point]"
O=C(CSc1nc2ncc(Br)cc2[nH]1)Nc1ccccc1-c1ccccc1,3.28%,,"20.6 µM [falling, single point]"
CCC(CC)c1nnc(NC(=O)C2COc3ccccc3O2)s1 (stereo not given),139%,"29.1 µM [rising, single point]",
Cc1cc(C(=O)NNC(=O)CN2C(=O)NC3(CCCCC3)C2=O)c(C)o1,-2.33%,,"8.2 µM [falling, single point]"

# Structures from the list above that have bromine (2):
Compound,cell number change,AC50 [1],AC50 [2]
CCOC(=O)n1c(=O)[nH]c2ccc(Br)cc21,-13.6%,,"6.51 µM [falling, partial curve, poor fit]"
O=C(CSc1nc2ncc(Br)cc2[nH]1)Nc1ccccc1-c1ccccc1,3.28%,,"20.6 µM [falling, single point]"
